According to PubChem BioAssay AID463205 (Broad Institute, 2010):
Among all 2,400 compounds or so, about 20 (0.8%) were called active.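 How the source made its calls: active means AC50 no more than ten times the highest tested concentration, or full inhibition at every dose giving a flat fit (cut at about 30 µM in these data); inconclusive means flat fit with activity between 30% and 70%, or poor-quality invalid fit; inactive means AC50 more than ten times the top tested dose.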 This is one part of the list.

Assay: luciferase-based ADP detection interference – biochemical, luminescence, cell-free, homogeneous, artefact control for GSK-3a inhibitor project, dose response (AID 463205);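 further: kinase-free counter-screen against the ADP-Glo detection reagents only; potency is for inhibitors that reduce the luminescence signal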
Conditions: Cell-free ADP-Glo detection reagents, 5 uM ADP

AC50, inactive:
Fc1cccc(/C=N/Nc2nccnc2Cl)c1 > 30 µM
Nc1nnc(SCC(=O)Nc2sc3c(c2C(=O)c2ccccc2)CCCC3)s1 > 30 µM
c1ccc(CNc2ncnc3sc4c(c23)CCCC4)nc1 > 30 µM
COc1ccc(CNC(=O)CN(CC2CCCO2)C(=O)CNS(=O)(=O)c2ccccc2)cc1 (stereo not given) > 30 µM
NS(=O)(=O)c1ccc(Nc2nc(-c3ccc(F)cc3)cs2)cc1 > 30 µM
O=C1NC(=Nc2ccccc2Cl)S/C1=C\c1cccc([N+](=O)[O-])c1 > 30 µM
COc1ccc(/C=C2\Oc3cc(OCC(N)=O)ccc3C2=O)cc1OC > 30 µM
COc1ccc2c(=O)c3c(=O)n(Cc4ccco4)c(-c4ccco4)nc3oc2c1 > 30 µM
CC(=O)Nc1ncc(Cc2cccc(Cl)c2Cl)s1 > 30 µM
O=C(CCSc1nc(-c2ccco2)cc(C(F)(F)F)n1)NCc1cccs1 > 30 µM
O=C(CSc1nc2[nH]ncc2c(=O)n1-c1ccc(Cl)c(Cl)c1)NCc1ccccc1Cl > 30 µM
COc1ccc(-c2csc3ncnc(NCCCO)c23)cc1 > 30 µM
CCOC(=O)c1c(NC(=O)CN2C(=O)NC3(CCC(C)CC3)C2=O)sc(C)c1CC (stereo not given) > 30 µM
O=C(COC(=O)Cc1ccc(F)cc1)Nc1ccc(Cl)cn1 > 30 µM
CCOC(=O)c1nnn(-c2nonc2N)c1CS(=O)(=O)c1ccccc1 > 30 µM
C=CCN1C(=O)/C(=C\c2ccco2)C(C(=O)OC)=C1C > 30 µM
CC(=O)N1CC=C2C(C#N)=C(N)C(C#N)(C#N)[C@H](c3ccoc3)[C@H]2C1 > 30 µM
CCCCc1ccc(NC(=O)N[C@@H](CC(C)C)C(=O)O)cc1 > 30 µM
CCN(CC)CCNC(=O)c1ccc(NC(=O)C2CCN(c3ncnc4sc(C)c(C)c34)CC2)cc1 > 30 µM
Cc1nn(-c2ccccc2)c(C)c1/C=C/C(=O)OCC(=O)Nc1ccc(C(N)=O)cc1 > 30 µM
COc1ccc(C2=Nn3c(nnc3-c3ccncc3)SC2)cc1 > 30 µM
N#C/C(=N\Nc1cccc(F)c1)C(=O)C1CC1 > 30 µM
Cc1nc2ccccc2n2c(-c3ccccc3)c3c(=O)n(C)c(=O)n(C)c3c12 > 30 µM
CCOC(=O)C1CCCN(c2c(C(=O)c3ccccc3)cnc3ccc(OC)cc23)C1 (stereo not given) > 30 µM
CCOC(=O)C1CCCN(Cc2sccc2C)C1 (stereo not given) > 30 µM
Oc1[nH]c2ccc(Br)cc2c1N=Nc1ccc(F)cc1 > 30 µM
C/C(=C(/CCO)SSCC1CCCO1)N(C=O)Cc1cnc(C)nc1N (stereo not given) > 30 µM
CNc1nc(Cl)c(SC)c(NC2CCCCC2)n1 > 30 µM
N#CC(C#N)=Cc1c[nH]c(=O)c(C#N)c1Nc1ccccc1 > 30 µM
CCOC(=O)c1ccc(N2CSC3=C(C#N)C(c4ccc(OC)cc4OC)CC(=O)N3C2)cc1 (stereo not given) > 30 µM
O=C(C[n+]1ccccc1)c1ccc(Cl)cc1 > 30 µM
N#Cc1c(NC(=O)c2ccc(Br)o2)n(-c2ccccc2)c2nc3ccccc3nc12 > 30 µM
OCc1cn(-c2ccccc2)nn1 > 30 µM
Nc1nonc1-c1nc2ccccc2n1CCC(=O)O > 30 µM
COc1cc(/C=N/NC(=O)c2ccoc2C)ccc1O > 30 µM
CCc1ccc(C2CC(c3cccc(Cl)c3)n3nc(N)nc3N2)cc1 (stereo not given) > 30 µM
O=C1C2C3c4ccccc4C(c4ccccc43)C2C(=O)N1Cc1cccnc1 (stereo not given) > 30 µM
COc1cccc2c1C(=O)O/C2=C/c1ccc2c(c1)OCO2 > 30 µM
CCOC(=O)c1[nH]c(C)c(C(=O)OCCOc2cccc(C)c2)c1C > 30 µM
Cc1ccnc(NC(=O)CCC(=O)N(CC(=O)NCc2ccccc2)Cc2ccco2)c1 > 30 µM
O=C(c1coc2ccc(O)c(CN3CCOCC3)c12)C1CC1 > 30 µM
O=C(O)C1CC(O)CN1C(=S)Nc1ccccc1 (stereo not given) > 30 µM
S=C(NCc1ccccc1)Nc1cccc2cnccc12 > 30 µM
O=C(COC(=O)c1ccco1)Nc1ccc(Cl)cn1 > 30 µM
CCCCc1ccc(NC(=O)N[C@H](C(=O)O)C(C)CC)cc1 (stereo not given in full) > 30 µM
COc1cc(C(=O)NNC(=O)C2CSC3(C)CCC(=O)N23)cc(OC)c1OC (stereo not given) > 30 µM
COc1ccccc1/C=N/NC(=O)c1ccccc1Cl > 30 µM
Nc1nonc1-n1nnc(C(=O)N/N=C/c2ccncc2)c1CSc1ccc(Cl)cc1 > 30 µM
CCOC(=O)c1cnc2cc(F)c(F)cc2c1N1CCN(C)CC1 > 30 µM
CCOC(=O)/C(C#N)=C1/SC(CCO)C(=O)N1c1ccccc1 (stereo not given) > 30 µM
COc1cccc(C(C[N+](=O)[O-])c2c(C)[nH]n(-c3ccccc3)c2=O)c1 (stereo not given) > 30 µM
CSc1nc2sc3c(c2c(=O)[nH]1)CCC(C)C3 (stereo not given) > 30 µM
CC1=C(C(=O)OC2CCCCC2)C(c2cccs2)n2c(nc3ccccc32)N1 (stereo not given) > 30 µM
COc1cc(/C=N/NC(=O)c2cccs2)ccc1O > 30 µM
CN1/C(=C/C(=S)NC(=O)C2CCC2)C(C)(C)c2ccccc21 > 30 µM
Cc1noc(C)c1COc1cccc(C(=O)OC(C)C(=O)Nc2c(C)n(C)n(-c3ccccc3)c2=O)c1 (stereo not given) > 30 µM
Cc1nc2sc3c(c2c(=O)o1)CC(C)(C)OC3 > 30 µM
CC(=O)Oc1cc(O)c2c(=O)c(OC(C)=O)c(-c3ccc(OC(C)=O)c(OC(C)=O)c3)oc2c1 > 30 µM
OCc1nnn(-c2ccccc2)c1CO > 30 µM
CC1CN(c2nc(Nc3ccccc3F)nc(N)c2[N+](=O)[O-])CC(C)O1 (stereo not given) > 30 µM
Cc1ccc(CSCCNC(=O)c2ccccc2)cc1 > 30 µM
COc1ccc(NC(=S)Nc2ccc3cn[nH]c3c2)cc1 > 30 µM
COc1ccc(/C=C/c2nc(N)nc(-c3ccccc3O)n2)cc1 > 30 µM
c1ccc2c(c1)ccc1nnc(-c3ccc4c(c3)OCO4)n12 > 30 µM
O=[N+]([O-])c1ccc(Nc2nc(NC3CCCCC3)nc(N3CCCC3)n2)cc1 > 30 µM
CN(C)Cc1c(C(=O)N/N=C/c2ccco2)nnn1-c1nonc1N > 30 µM
Clc1ccc(CNc2ccc3nnc(-c4ccccc4)n3n2)cc1 > 30 µM
Oc1ccc(-c2nnc(-c3ccc(O)cc3)nn2)cc1 > 30 µM
Oc1cccc(Nc2c3ccccc3nc3ccccc23)c1 > 30 µM
Cc1cc(C(C#N)c2cccc(Cl)c2)n2ncnc2n1 (stereo not given) > 30 µM
COc1ccc(-c2cc(C(=O)N3CCN(c4ccccc4OC)CC3)no2)cc1 > 30 µM
COc1ccc(NC(=O)Nc2ccc(F)cc2)c(C)c1 > 30 µM
CNC(=O)CSc1nnc(-c2ccco2)n1-c1cccc(OC)c1 > 30 µM
O=C(Nc1ccc(Cl)cn1)c1cccc(S(=O)(=O)N2CCOCC2)c1 > 30 µM
CN1/C(=C\C=C(C#N)C#N)C(C)(C)c2ccccc21 > 30 µM
CNc1cc(N2CCCC2)ccc1[N+](=O)[O-] > 30 µM
COc1ccc(Br)cc1C(=O)Nc1cccc(NC(=O)c2ccco2)c1 > 30 µM
CC1(C)CC(=O)C(C2c3ccccc3Oc3ccccc32)C(=O)C1 > 30 µM
COc1ccc2c3c(cccc13)OC2=O > 30 µM
CN(C(=O)/C=C/c1ccc2c(c1)OCO2)c1ccccc1 > 30 µM
Cc1cc(=O)[nH]c2cc(O)ccc12 > 30 µM
CS(=O)(=O)N1CCN(c2ccccc2NC(=O)c2cccs2)CC1 > 30 µM
CCCc1c(C(=O)N/N=C/C(C)=C/c2ccco2)nnn1-c1nonc1N > 30 µM
O=C(Nc1ccsc1C(=O)O)c1ccccc1 > 30 µM
COc1cc(C2CC(=O)N3CN(Cc4ccccc4)CSC3=C2C#N)ccc1OCc1ccccc1 (stereo not given) > 30 µM
O=C(c1cccnc1NCc1ccccc1)N1CCOCC1 > 30 µM
CCN1CCN(c2nc(Nc3cccc(F)c3)nc(N)c2[N+](=O)[O-])CC1 > 30 µM
COc1ccc(C(=O)Nc2nc(C)cc(C)n2)cc1 > 30 µM
CNc1nnc(-c2cc3ccccc3oc2=O)s1 > 30 µM
CCOC(=O)c1cc[nH]c1C > 30 µM
COCC(O)CSc1nc(C)[nH]c1[N+](=O)[O-] (stereo not given) > 30 µM
Cc1nc(NC(=O)c2ccccc2)sc1Cc1ccc2c(c1)OCO2 > 30 µM
COc1cc(/C=N/NC(=O)c2nnn(-c3nonc3N)c2-c2cccs2)ccc1O > 30 µM
CCCCOc1ccc(CSc2nc(C)[nH]c2[N+](=O)[O-])cc1[N+](=O)[O-] > 30 µM
Cc1ccc(CSc2nnc(SCC(=O)N/N=C/c3ccc(C(=O)O)cc3)s2)cc1 > 30 µM

Two entries picked at random from those above:
AC50, inactive:
COc1ccc(C(=O)Nc2nc(C)cc(C)n2)cc1 > 30 µM
Oc1[nH]c2ccc(Br)cc2c1N=Nc1ccc(F)cc1 > 30 µM

Reprinted from the listing (3 entries):
AC50, inactive:
COc1cccc2c1C(=O)O/C2=C/c1ccc2c(c1)OCO2 > 30 µM
CCOC(=O)c1[nH]c(C)c(C(=O)OCCOc2cccc(C)c2)c1C > 30 µM
Cc1ccnc(NC(=O)CCC(=O)N(CC(=O)NCc2ccccc2)Cc2ccco2)c1 > 30 µM

Ordered by molecular weight (descending): part of the list above.
AC50, inactive:
COc1ccc(CNC(=O)CN(CC2CCCO2)C(=O)CNS(=O)(=O)c2ccccc2)cc1 (stereo not given) > 30 µM
O=C(c1cccnc1NCc1ccccc1)N1CCOCC1 > 30 µM
Cc1ccc(CSCCNC(=O)c2ccccc2)cc1 > 30 µM
